Results from article PMC11566183.
Results are given in words; binding and its absence hold for the method and conditions named. In cells and extracts the contact can be indirect. Some binding calls cover weakened binding; strength is not graded here. Tags and fused reporters may be left off the sequences shown.

Chains of the proteins cited; added tags and fusions are not shown.
UniProt P11142: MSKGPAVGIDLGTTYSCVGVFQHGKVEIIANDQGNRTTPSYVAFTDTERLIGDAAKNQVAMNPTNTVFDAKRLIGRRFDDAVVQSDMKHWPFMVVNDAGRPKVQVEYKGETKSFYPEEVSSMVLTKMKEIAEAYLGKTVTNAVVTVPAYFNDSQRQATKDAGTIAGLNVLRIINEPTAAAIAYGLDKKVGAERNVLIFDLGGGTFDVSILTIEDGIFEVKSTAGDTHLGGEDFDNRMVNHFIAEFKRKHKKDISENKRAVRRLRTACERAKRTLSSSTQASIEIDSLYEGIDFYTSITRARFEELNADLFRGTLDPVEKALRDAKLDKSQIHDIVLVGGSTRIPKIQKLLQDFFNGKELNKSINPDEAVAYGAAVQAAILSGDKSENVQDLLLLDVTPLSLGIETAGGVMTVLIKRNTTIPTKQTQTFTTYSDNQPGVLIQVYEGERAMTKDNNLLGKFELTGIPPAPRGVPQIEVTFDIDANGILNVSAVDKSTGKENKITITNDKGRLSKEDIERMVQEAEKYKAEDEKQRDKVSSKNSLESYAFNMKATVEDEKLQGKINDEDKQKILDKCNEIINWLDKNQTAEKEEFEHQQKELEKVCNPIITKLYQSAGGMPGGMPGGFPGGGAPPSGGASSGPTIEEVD

Molecular target: myc-tagged full-length HSPA8 (HSPA8-myc) (UniProt P11142)
Test: co-IP; HEK-293 T cells co-transfected with the plasmids for 36 h; WB/IP lysis buffer with protease inhibitors; supernatant incubated overnight at 4 °C with anti-HA, anti-Flag or anti-myc magnetic beads; washed with cold PBS; immunoblot; HSPA8-myc with Flag-TBK1 tested with Nsp2-HA or HA-tagged empty …

B1: Flag-tagged TANK-binding kinase 1 (Flag-TBK1) (enzyme, UniProt Q9UHD2 1-729)
chain: MQSTSNHLWLLSDILGQGATANVFRGRHKKTGDLFAIKVFNNISFLRPVDVQMREFEVLKKLNHKNIVKLFAIEEETTTRHKVLIMEFCPCGSLYTVLEEPSNAYGLPESEFLIVLRDVVGGMNHLRENGIVHRDIKPGNIMRVIGEDGQSVYKLTDFGAARELEDDEQFVSLYGTEEYLHPDMYERAVLRKDHQKKYGATVDLWSIGVTFYHAATGSLPFRPFEGPRRNKEVMYKIITGKPSGAISGVQKAENGPIDWSGDMPVSCSLSRGLQVLLTPVLANILEADQEKCWGFDQFFAETSDILHRMVIHVFSLQQMTAHKIYIHSYNTATIFHELVYKQTKIISSNQELIYEGRRLVLEPGRLAQHFPKTTEENPIFVVSREPLNTIGLIYEKISLPKVHPRYDLDGDASMAKAITGVVCYACRIASTLLLYQELMRKGIRWLIELIKDDYNETVHKKTEVVITLDFCIRNIEKTVKVYEKLMKINLEAAELGEISDIHTKLLRLSSSQGTIETSLQDIDSRLSPGGSLADAWAHQEGTHPKDRNVEKLQVLLNCMTEIYYQFKKDKAERRLAYNEEQIHKFDKQKLYYHATKAMTHFTDECVKKYEAFLNKSEEWIRKMLHLRKQLLSLTNQCFDIEEEVSKYQEYTNELQETLPQKMFTASSGIKHTMTPIYPSSNTLVEMTLGMKKLKEEMEGVVKELAENNHILERFGSLTMDGGLRNVDCL
For B1, which binding is on record?
Its binding is “binds”.
